Assay results taken from patent US20170281807A1.

How the values were obtained:
[1] = biological target: murine AA amyloid in tissues of AA mice (mouse); assay: microautoradiography, SPECT/CT and biodistribution of 125I-p66 in AA mice
[2] = biological target: murine AA amyloid in tissues of AA mice (mouse); assay: pull-down of 125I-labeled peptide, 0.15 M or 1.0 M NaCl; mAA liver homogenate
[3] = biological target: murine AA amyloid in tissues of AA mice (mouse); assay: microautoradiography and immunohistochemistry, AA mice pre-targeted with p66, 24 h after 125I-11-1F4
[4] = biological target: murine AA amyloid in tissues of AA mice (mouse); assay: immunohistochemistry with biotinylated clone 12-3 on tissues of AA mice given p66
[5] = biological target: murine AA amyloid in tissues of AA mice (mouse); assay: microautoradiography of 125I-p66 in AA mice, Congo red on consecutive sections
[6] = biological target: murine AA amyloid in tissues of AA mice (mouse); assay: immunohistochemistry with biotinylated clone 12-3 on tissues of AA mice given p5+14

Measured: binding

B1: peptide p66 (11-1F4 peptope) (peptide)
peptide: KAQKAQAKQAKQAQKAQKAQAKQAKQAQKAQKAQAKQAKQSVTVVTKHYAAFPENLLI
binds: [1] | [2] | [3] | [4] | [5]

KAQKAQAKQAKQAQKAQKAQAKQAKQAQKAQKAQAKQAKQ [peptide p5+14]
binds: [2] | [6]

Results are given in words; binding and its absence hold for the method and conditions named. Binding can be weak; no strength is given.
